PMC3409535
Results are given in words; binding and its absence hold for the method and conditions named. In cells and extracts the contact can be indirect. For some of these results: A result given as binding can be weak or reduced; the word gives no strength.

How the values were obtained:
Experiment in all cases: co-IP; 293T cells transfected with different amounts of FLAG-tagged codon-optimized integrases; extraction buffer 400 mM NaCl, 0.5% Triton X-100, 50 mM Tris-HCl pH 8, 2 mM MgCl2, 5% glycerol; extracts treated with DNAase and precleared; anti-FLAG IP, FLAG-peptide elution, Western blot for endogenous TNPO3
[1] = target: FLAG-tagged BIV integrase (bovine immunodeficiency virus (BIV))
[2] = target: FLAG-tagged EIAV integrase (equine infectious anemia virus (EIAV))
[3] = target: FLAG-tagged FIV integrase (Feline immunodeficiency virus (FIV))
[4] = target: FLAG-tagged HIV-1 integrase (HIV-1)
[5] = target: FLAG-tagged HIV-2 integrase (HIV-2)
[6] = target: FLAG-tagged MLV integrase (murine leukemia virus (MLV))
[7] = target: FLAG-tagged SIVmac integrase (SIVmac)

B1: TNPO3 (protein, UniProt Q9Y5L0-2 1-923)
chain: MEGAKPTLQLVYQAVQALYHDPDPSGKERASFWLGELQRSVHAWEISDQLLQIRQDVESCYFAAQTMKMKIQTSFYELPTDSHASLRDSLLTHIQNLKDLSPVIVTQLALAIADLALQMPSWKGCVQTLVEKYSNDVTSLPFLLEILTVLPEEVHSRSLRIGANRRTEIIEDLAFYSSTVVSLLMTCVEKAGTDEKMLMKVFRCLGSWFNLGVLDSNFMANNKLLALLFEVLQQDKTSSNLHEAASDCVCSALYAIENVETNLPLAMQLFQGVLTLETAYHMAVAREDLDKVLNYCRIFTELCETFLEKIVCTPGQGLGDLRTLELLLICAGHPQYEVVEISFNFWYRLGEHLYKTNDEVIHGIFKAYIQRLLHALARHCQLEPDHEGVPEETDDFGEFRMRVSDLVKDLIFLIGSMECFAQLYSTLKEGNPPWEVTEAVLFIMAAIAKSVDPENNPTLVEVLEGVVRLPETVHTAVRYTSIELVGEMSEVVDRNPQFLDPVLGYLMKGLCEKPLASAAAKAIHNICSVCRDHMAQHFNGLLEIARSLDSFLLSPEAAVGLLKGTALVLARLPLDKITECLSELCSVQVMALKKLLSQEPSNGISSDPTVFLDRLAVIFRHTNPIVENGQTHPCQKVIQEIWPVLSETLNKHRADNRIVERCCRCLRFAVRCVGKGSAALLQPLVTQMVNVYHVHQHSCFLYLGSILVDEYGMEEGCRQGLLDMLQALCIPTFQLLEQQNGLQNHPDTVDDLFRLATRFIQRSPVTLLRSQVVIPILQWAIASTTLDHRDANCSVMRFLRDLIHTGVANDHEEDFELRKELIGQVMNQLGQQLVSQLLHTCCFCLPPYTLPDVAEVLWEIMQVDRPTFCRWLENSLKGLPKETTVGAVTVTHKQLTDFHKQVTSAEECKQVCWALRDFTRLFR
In the case of B1, the binding [1] is reported as “no binding”, the binding [2] is reported as “no binding” and the binding [3] is reported as “binds weakly”. The binding [4] was “binds”, the binding [5] was “binds” and the binding [6] was “no binding”. For the same binder, the binding [7] was “binds”.
